Experimental findings from article PMC5216926 are described below.

Amino acid sequences for entries named in this document (tags omitted).
UniProt Q01860: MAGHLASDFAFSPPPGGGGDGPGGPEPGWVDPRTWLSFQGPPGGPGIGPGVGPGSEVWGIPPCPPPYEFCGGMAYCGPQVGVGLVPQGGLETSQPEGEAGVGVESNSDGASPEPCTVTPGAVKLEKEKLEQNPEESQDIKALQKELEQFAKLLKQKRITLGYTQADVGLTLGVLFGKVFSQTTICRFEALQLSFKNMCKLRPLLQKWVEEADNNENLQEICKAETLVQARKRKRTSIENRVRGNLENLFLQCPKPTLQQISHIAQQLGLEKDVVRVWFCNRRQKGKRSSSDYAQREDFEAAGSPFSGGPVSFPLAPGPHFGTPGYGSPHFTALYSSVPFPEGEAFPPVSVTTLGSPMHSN
UniProt Q9H6I2: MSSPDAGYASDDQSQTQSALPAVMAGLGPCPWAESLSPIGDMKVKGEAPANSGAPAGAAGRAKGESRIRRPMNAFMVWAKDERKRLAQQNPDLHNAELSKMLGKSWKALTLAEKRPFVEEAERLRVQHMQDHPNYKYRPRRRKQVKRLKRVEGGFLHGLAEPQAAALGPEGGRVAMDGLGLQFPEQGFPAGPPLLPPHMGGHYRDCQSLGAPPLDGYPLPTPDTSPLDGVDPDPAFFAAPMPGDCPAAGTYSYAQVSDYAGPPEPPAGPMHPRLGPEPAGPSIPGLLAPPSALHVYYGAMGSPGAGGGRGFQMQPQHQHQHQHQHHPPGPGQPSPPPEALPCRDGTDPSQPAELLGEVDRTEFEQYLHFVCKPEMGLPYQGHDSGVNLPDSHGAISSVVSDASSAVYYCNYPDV

No constants are given. Whether binding was seen depends on the method and setting. Binding seen in cells or lysates may run through a third protein. Some results given as binding are weak or reduced against the parent protein; the word gives no strength.

The target in this experiment is OCT3/4 (human (endogenous in TCam-2)) (UniProt Q01860). Briefly: co-IP; endogenous proteins in TCam-2 lysate; Dynabeads Protein G (1.5 mg) with 10 ug IP-antibody; 200 ug total protein lysate; immunoprecipitation at RT for 2 h; western blotting. A general note: A western blot detects proteins with antibodies after separation by electrophoresis.

As for SOX17 (from UniProt Q9H6I2 1-414), the binding entry is reported as “binds”.
